Results taken from PubChem BioAssay AID540276 (National Center for Advancing Translational Sciences (NCATS), 2011).
About 5,400 (1.8%) of roughly 300,000 compounds were called active. The inconclusive results got no clear call from the source; some entries with a clear call stand among them for comparison. The call rests on the fitted dose curve; tested in HEK293 cells. Potencies of inconclusive entries are doubtful fits and often do not repeat.

Assay: qHTS for inhibitors of binding or entry into cells for Marburg Virus
Conditions: Marburg virus pseudotyped entry inhibition, cell reporter; activity change, negative = inhibition: at 37.8 µM (top of the series) unless noted
On the % scale 0 is the no-effect control and ±100 the full control effect; potency means the concentration at half of the fitted maximal effect.

Row | Structure (SMILES) | Potency | activity change, negative = inhibition
1 | COc1ccc([N+](=O)[O-])cc1NC(=O)CC1SC(=Nc2cccc(C)c2C)N(/N=C/c2cccc(OC)c2OC)C1=O (configuration not stated) | inconclusive: 1.41 µM [inhibitor, partial curve, poor fit] | 
2 | COc1cccc(C2=NS(=O)(=O)N(C)C(C(=O)Nc3ccccc3SC)=C2)c1 |  | inactive: 2.64% [at 46.1 µM]
3 | COc1ccc(NC(=O)c2n[nH]c(=O)c3ccccc23)cc1S(=O)(=O)N1CCCCC1 | inconclusive: 15.8 µM [inhibitor, single point] | 
4 | CCN(CC)C(=O)c1ccc(NC(=O)CCn2nc(-c3ccc(C)cc3)c3ccccc3c2=O)cc1 | inconclusive: 22.4 µM [inhibitor, single point] | 
5 | CC1CCC(NC(=O)c2ccc(CS(=O)(=O)c3cccc(C(F)(F)F)c3)o2)CC1 (configuration not stated) | inconclusive: 11.2 µM [inhibitor, partial curve, poor fit] | 
6 | O=C(NCc1cccs1)c1ccc(CSc2nc3ccncc3n2Cc2ccccc2)cc1 | inconclusive: 14.1 µM [activator, single point] | 
7 | CCOC(=O)C(=O)N1c2ccccc2C(N(C(=O)C(=O)OCC)c2ccccc2)CC1C (configuration not stated) | inconclusive: 7.94 µM [inhibitor, partial curve, poor fit] | 
8 | COc1ccc(C(=O)N2CCC(n3c(C)nc4cc(F)ccc43)CC2)cc1 | inconclusive: 7.94 µM [inhibitor, partial curve] | 
9 | COc1ccc(C(C(=O)NCC2CCCO2)N(C(=O)CNC(=O)c2cccs2)c2ccc(NC(C)=O)cc2)cc1OC (configuration not stated) | inconclusive: 0.794 µM [inhibitor, full curve] | 
10 | Nc1c(C(=O)Nc2ccc(S(=O)(=O)N3CCCC3)cc2)sc2nc3cc4c(cc3cc12)CCC4 | inconclusive: 25.9 µM [activator, single point] | 
11 | N/C(Cc1ccc(Cl)cc1Cl)=N\OC(=O)c1ccc(Br)o1 |  | inactive: 2.11% [at 46.1 µM]
12 | COc1ccc(NC(=O)Cn2ncc(Cl)c(Cl)c2=O)cc1S(=O)(=O)N1CCOCC1 | inconclusive: 10 µM [inhibitor, partial curve, poor fit] | 
13 | Cc1ccccc1Oc1ccccc1N |  | inactive: 4.76% [at 46.1 µM]
14 | CNC(=S)N(CCc1c(C)[nH]c2ccc(OC)cc12)Cc1cccnc1 | inconclusive: 12.6 µM [inhibitor, single point] | 
15 | COc1cccc(C2SCC(=O)N2c2ccc(Cl)cc2)c1OC (configuration not stated) | inconclusive: 1.26 µM [inhibitor, single point] | 
16 | CCCN(CCC)C(=O)CSc1nc2n[nH]c(C)c2c(=N)n1-c1ccc(OC)cc1 | inconclusive: 12.6 µM [inhibitor, single point] | 
17 | O=C(CCCCC(=O)NN=Cc1ccc(Cl)cc1)NN=Cc1ccc(Cl)cc1 | inconclusive: 2.82 µM [activator, full curve, poor fit] | 
18 | COc1ccc(C(NC(=O)c2ccc(-c3ccccc3)cc2)c2ccccc2)cc1 (configuration not stated) |  | inactive: -16.2%
19 | CSCc1ccc(C(=O)Nc2cc(C)cc(C)c2)cc1 | inconclusive: 3.98 µM [activator, partial curve, poor fit] | 
20 | CC(=O)c1cccc(OCC(=O)OCC(=O)Nc2cc(S(=O)(=O)N3CCCCC3)ccc2C)c1 | inconclusive: 22.4 µM [inhibitor, single point] | 
21 | Oc1c(C=Nc2cccc3nsnc23)ccc2ccccc12 | inconclusive: 11.6 µM [inhibitor, partial curve, poor fit] | 

Row | Structure (SMILES) | Potency | activity change, negative = inhibition
22 | CCCC(=O)NCc1cc(-c2nn(C)c(=O)c3ccccc23)ccc1C |  | inactive: 8.94%
23 | CN(C(=O)CSc1nnc(-c2ccco2)n1C)C1CCCCC1 | inconclusive: 5.62 µM [activator, single point] | 
24 | Cc1ccc(C(=O)Nc2cc3c(oc2=O)CCCC3=O)cc1 | inconclusive: 3.66 µM [activator, partial curve, poor fit] | 
25 | COc1cccc(-c2nn(C)c3sc(C(=O)NCc4ccco4)cc23)c1 |  | inactive: 7.68%
26 | O=c1oc2cc(OCc3nn[nH]n3)ccc2c2c1CCCC2 |  | inactive: -12.7%
27 | Cc1cc(C)c2c(CC(=O)Nc3ccc(S(=O)(=O)N4CCCCC4)cc3)coc2c1 | inconclusive: 12.6 µM [inhibitor, single point] | 
28 | O=C(c1cc2ccccc2oc1=O)N1CCN(c2ccc(F)cc2)CC1 |  | inactive: 12.5% [at 46.1 µM]
29 | COc1ccc2c(c1)C(=O)CCC2c1ccccc1 (configuration not stated) |  | inactive: -9.69% [at 46.1 µM]
30 | CCc1ccc(NC(=O)N(CCCN2CCOCC2)C(C)c2cc3cccc(OC)c3o2)cc1 (configuration not stated) | inconclusive: 35.5 µM [inhibitor, single point] | 
31 | COc1ccccc1CCNC(=O)Cc1c(C)c2cc3c(C)coc3cc2oc1=O |  | inactive: -4.27% [at 46.1 µM]
32 | COc1ccccc1/C=C/C=N/NC(=O)CC1C(=O)NN=C1C (configuration not stated) |  | inactive: 6.19%
33 | NC(=O)c1cc[n+](CC2=C(C(=O)O)N3C(=O)[C@@H](NC(=O)[C@@H](c4ccccc4)S(=O)(=O)[O-])[C@H]3SC2)cc1 | inactive | 
34 | O=[N+]([O-])c1ccc2ncnc(Nc3ccc4c(c3)OCCO4)c2c1 | inconclusive: 1.26 µM [inhibitor, single point] | 
35 | O=C1N=C(N2CCN(c3ccccc3)CC2)S/C1=C/c1cccs1 |  | inactive: 15.7% [at 46.1 µM]
36 | CC1CCCCN1C(=O)c1cc2c(=O)n3ccccc3nc2s1 (configuration not stated) | inconclusive: 1.58 µM [activator, partial curve, poor fit] | 
37 | Cc1nc(N)sc1C(=O)Nc1ccccc1 | inconclusive: 0.794 µM [activator, partial curve, poor fit] | 
38 | S=C(NCc1cccnc1)Nc1ccc(Oc2ccc(Cl)cc2)cc1 | inconclusive: 17.8 µM [inhibitor, single point] | 
39 | COC(=O)[C@H]1C[C@@]2(CC=C(C)C)C(=O)[C@@](CC=C(C)C)(C(=O)C(C(=O)c3ccccc3)=C2OC)C1(C)C | inconclusive: 1.33 µM [activator, single point] | 
40 | Cc1cc(C)c2cc3c(N)c(C(=O)N4CCc5ccccc5C4)sc3nc2c1 |  | inactive: -0.231%
41 | COc1ccc(N(CC(=O)Nc2ccc(S(=O)(=O)N3CCOCC3)cc2)S(=O)(=O)c2ccccc2)cc1 | inconclusive: 12.6 µM [inhibitor, single point] | 
42 | Cc1ccc(N(CC(O)Cn2c3ccccc3c3ccccc32)S(C)(=O)=O)cc1 (configuration not stated) | inconclusive: 18.3 µM [inhibitor, single point] | 

Single records, as listed above:
O=[N+]([O-])c1ccc2ncnc(Nc3ccc4c(c3)OCCO4)c2c1 in the list: Potency: inconclusive: 1.26 µM [inhibitor, single point]
Cc1nc(N)sc1C(=O)Nc1ccccc1 in the list: Potency: inconclusive: 0.794 µM [activator, partial curve, poor fit]
